# No constants are given. Whether binding was seen depends on the method and setting. Binding seen in cells or lysates may run through a third protein. Some binding calls cover weakened binding; strength is not graded here.
# By UniProt entry, the sequences of proteins in these tests, tags left out. Residues count along the entry.
# UniProt P77774, residues 20-392: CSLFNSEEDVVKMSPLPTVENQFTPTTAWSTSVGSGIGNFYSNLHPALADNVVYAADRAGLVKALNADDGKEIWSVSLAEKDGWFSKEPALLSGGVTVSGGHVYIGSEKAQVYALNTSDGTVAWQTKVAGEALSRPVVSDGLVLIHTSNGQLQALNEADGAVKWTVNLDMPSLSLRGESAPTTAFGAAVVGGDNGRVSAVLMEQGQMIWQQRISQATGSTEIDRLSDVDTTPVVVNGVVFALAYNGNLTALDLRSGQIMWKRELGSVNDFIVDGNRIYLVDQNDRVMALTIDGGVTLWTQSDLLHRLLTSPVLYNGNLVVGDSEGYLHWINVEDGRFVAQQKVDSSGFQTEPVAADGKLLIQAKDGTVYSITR
# UniProt P0AC02, residues 20-245: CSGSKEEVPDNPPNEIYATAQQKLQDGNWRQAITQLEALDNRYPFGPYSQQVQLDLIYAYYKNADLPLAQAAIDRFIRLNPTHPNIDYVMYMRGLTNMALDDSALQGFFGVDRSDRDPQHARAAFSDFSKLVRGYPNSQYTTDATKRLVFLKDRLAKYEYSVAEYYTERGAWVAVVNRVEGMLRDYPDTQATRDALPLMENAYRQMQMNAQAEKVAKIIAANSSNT
# B1: ^35S-labelled OmpC (natural protein)
# chain: MKVKVLSLLVPALLVAGAANAAEVYNKDGNKLDLYGKVDGLHYFSDNKDVDGDQTYMRLGFKGETQVTDQLTGYGQWEYQIQGNSAENENNSWTRVAFAGLKFQDVGSFDYGRNYGVVYDVTSWTDVLPEFGGDTYGSDNFMQQRGNGFATYRNTDFFGLVDGLNFAVQYQGKNGNPSGEGFTSGVTNNGRDALRQNGDGVGGSITYDYEGFGIGGAISSSKRTDAQNTAAYIGNGDRAETYTGGLKYDANNIYLAAQYTQTYNATRVGSLGWANKAQNFEAVAQYQFDFGLRPSLAYLQSKGKNLGRGYDDEDILKYVDVGATYYFNKNMSTYVDYKINLLDDNQFTRDAGINTDNIVALGLVYQF
# modifications: ^35S-methionine label
# Assays:
# [1] = target: BamB (E. coli) (UniProt P77774); experiment: pull-down
# [2] = target: BamD (E. coli) (UniProt P0AC02); experiment: pull-down
binder,measurement,setting,value
B1,binding,[1],no binding
same,binding,[2],binds
